# Experimental data from PubChem BioAssay AID1745846 (National Center for Advancing Translational Sciences (NCATS), 2022).
# The whole screen tested about 1,400 compounds, of which about 30 (2%) were called active. Inconclusive results (about 15%) are left out. Calls follow the shape of the dose curve; as a rule, active = well fitted inhibition curve with a large enough effect; inconclusive = small, poorly fitted or top-dose-only effect; inactive = flat fitted curve, though single readings scatter. The list shows a part of the results.
# Experiment: Firefly Luciferase Counterscreen for Inhibitors of ATXN expression
# Settings: luminescence; series mostly up to 57.5 µM; activity change, negative = inhibition: at the top concentration
# Summary of the method: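 Recombinant firefly luciferase at 10 nM final in 50 mM Tris pH 7.5, 10 mM MgCl2, 0.05% BSA, 0.01% Tween20 with substrate; compounds up to 57 uM final, 10 min room temperature, end-point luminescence. Buffer-only wells define 100% inhibition.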
# % is scaled to controls: 0 for no effect and ±100 for the full control effect.
row,Compound,"activity change, negative = inhibition"
1,CCC(CC)C(=O)c1c[nH]c(C(=O)NCc2ccccn2)c1,inactive: -2.54%
2,CC(=O)Oc1ccc(N(C(C)=O)S(=O)(=O)c2ccc(Cl)cc2)c2ccccc12,inactive: -17.1%
3,CC(=O)NC(c1ccco1)c1cc(Cl)c2cccnc2c1O (stereo not given),inactive: -13.4%
4,CC(C)C(=O)Nc1ccc(C(=O)N/N=C/c2cc(Br)cc(Br)c2O)cc1,inactive: 0.779%
5,Cc1cccn2c(=O)c3cc(C(=O)NCCN4CCOCC4)c(=N)n(Cc4ccc(F)cc4)c3nc12,inactive: -2.07%
6,Cc1ccnn1CC(=O)N/N=C/c1ccc([N+](=O)[O-])s1,inactive: -0.488%
7,CC1=C(C(=O)N(C(C)C)C(C)C)CC(CC(=O)NC2CCCC2)C(=O)N1Cc1ccc(C(C)(C)C)cc1 (stereo not given),inactive: 1.8%
8,COc1ccc(/C(C)=N/NC(=O)c2cccc(S(=O)(=O)N3CCCC3)c2)c(O)c1,inactive: -15.8%
9,C=CCOC(=O)C1=C(C)NC(SCC)=C(C#N)C1c1ccc(Cl)cc1 (stereo not given),inactive: 3.44%
10,CN(C)CCNC(=O)c1ccc(Cl)c2cc3ccccc3nc12,inactive: -1.46%
11,Cc1ccc(C)c(N2CCN(C(=O)C34CC5CC(C3)CC(n3nnc(C)n3)(C5)C4)CC2)c1,inactive: 2.54%
12,CC(C)(C)OC(=O)CNC(=O)c1[nH]cnc1C(=O)Nc1ccc(CNC(=O)OC(C)(C)C)cc1,inactive: -2.29%
13,COc1ccc(CCNC(=O)c2cc3c(F)cccc3s2)cc1OC,inactive: -19.9%
14,Cc1ccc(S(=O)(=O)c2nc(S(C)(=O)=O)sc2N2CCCCC2C)cc1 (stereo not given),inactive: 0.578%
15,Cc1cc(C)cc(NS(=O)(=O)c2ccc3c(c2)c(=O)n(C)c(=O)n3C)c1,inactive: 0.0788%
16,CN(C)CCNC(=O)c1cccc2nc3cccc(F)c3nc12,inactive: -0.179%
17,O=C(c1ccoc1)N1CCN(c2cc(-c3ccco3)nc3cc(-c4ccccc4)nn23)CC1,inactive: -17.6%
18,CC1(C)CC(N2CCN(Cc3ccccc3)CC2)=CC(=[N+]2CCCCC2)C1,inactive: -8%
19,CCOC(=O)c1c(NC(=O)C(Sc2ccccc2)c2ccccc2)sc(C(=O)N(C)C)c1C (stereo not given),inactive: 3.94%
20,O=C(Oc1c(CN2CCOCC2)cc(Cl)c2cccnc12)c1cccs1,inactive: -2.8%
21,O=C(N/N=C/c1c(O)ccc2ccccc12)c1cccc(C(F)(F)F)c1,inactive: -10.1%
22,COC1=C(C)C(O)=C(C(=O)/C=C/c2ccccc2)C(=O)C1(C)C,inactive: -13.5%
23,Cc1onc(-c2ccccc2)c1C(=O)Nc1ccc(S(=O)(=O)NC(C)(C)C)cc1,inactive: 1.56%
24,C=CCOc1ccc(CNc2ccc3[nH]c(=O)[nH]c3c2)cc1OC,inactive: -18.3%
25,Clc1ccc(SCc2cc(N3CCOCC3)nc(-c3ccccn3)n2)cc1,inactive: -1.11%

row,Compound,"activity change, negative = inhibition"
1,CCN(CC)CCC(c1ccc2c(c1)OCO2)c1c(OC)cc(OC)c2c(-c3ccccc3)cc(=O)oc12 (stereo not given),inactive: -0.79%
2,CC(C)(C)n1nnnc1C(c1cccs1)N(Cc1ccc(Cl)cc1)CC1CCCO1 (stereo not given),inactive: -0.8%
3,NNC(=O)/C(=N/Nc1ccccc1)S(=O)(=O)c1ccc(Cl)cc1,inactive: -0.515%
4,COc1cc(OC)c(C(=O)C=Cc2ccc(OC)c(OC)c2)c(OC)c1,inactive: -3.15%
5,Cc1ccc(/C=C2\SC(=S)N(CCCC(=O)NC3CCCC3)C2=O)cc1,inactive: -2.42%
6,CCN(CC)S(=O)(=O)c1ccc(C(=O)Nc2ccc(Cc3ccncc3)cc2)cc1,inactive: -2.13%
7,CCCCn1c(SCC(=O)Nc2cc(NC(=O)c3ccco3)ccc2C)nc2ccccc2c1=O,inactive: -0.949%
8,CN(C)CCNc1ccc(CO)c2sc3ccc(O)cc3c(=O)c12,inactive: -5.83%
9,Cc1ncc(CO)c(/C=N/Nc2ccc(C(F)(F)F)cn2)c1O,inactive: -0.531%
10,CC1(Cc2ccc(C(F)(F)F)o2)C(=O)Nc2ccc(-c3cccc(C(F)(F)F)c3)cc21 (stereo not given),inactive: -0.94%
11,CN1CCN(c2cc(-c3cc(O)c4ncccc4c3)ccn2)CC1,inactive: -1.23%
12,O=C(c1c(F)cccc1F)N1CCCC(c2nc(-c3ccc(Cl)cc3)no2)C1 (stereo not given),inactive: -10.2%
13,Cc1cc(C)c2c(N)c3cccc(C)c3nc2n1,inactive: -7.14%
14,CCc1nc2ccc(C(=O)Nc3cccc(NS(C)(=O)=O)c3)cn2c1N(C)CCCc1ccccc1,inactive: -2.96%
15,CC(C)n1cnc2c(N(C)c3ccccc3)nc(N(CCN(C)C)Cc3ccccc3)nc21,inactive: 0.895%
16,COc1ccc(C2=NN(C(=O)c3ccc(Cl)c([N+](=O)[O-])c3)C(c3ccccc3)C2)cc1 (stereo not given),inactive: -6.12%
17,CC(C)(CO)NCc1c(OCc2ccc(Cl)cc2)ccc2ccccc12,inactive: -4.07%
18,Cc1ccc2cc(C3C(C#N)=C(N)Oc4c3ccc3cccnc43)c(=O)[nH]c2c1 (stereo not given),inactive: -10.7%
19,CC1(C)c2[nH]c3ccccc3c2C[C@H]2C(=O)N(Cc3cccc(F)c3)C(=O)N21,inactive: 5.72%
20,NC(N)=N/N=C/c1ccc(Cl)c(Cl)c1,inactive: -1.22%
21,CCCN(CCC)S(=O)(=O)c1ccc(C(=O)Nc2nnc(-c3cc(OC)cc(OC)c3)o2)cc1,inactive: -11.8%
22,CC(=O)C(=Cc1cccc(C#N)c1)C(=O)c1ccccc1,inactive: -11.3%
23,CN(Cc1cnc2nc(N)nc(N)c2n1)c1ccc(C(=O)N[C@@H](CCC(=O)O)C(=O)O)cc1,inactive: -2.3%
24,CCN(CC)CCNc1ccc(CO)c2sc3ccccc3c(=O)c12,inactive: -1.5%
25,O=C(NC(Nc1ncc(S(=O)(=O)c2ccc([N+](=O)[O-])cc2)s1)(C(F)(F)F)C(F)(F)F)c1ccc(Cl)cc1,inactive: -10.1%

# Reprinted at random: 2 records from the list
row,Compound,"activity change, negative = inhibition"
20,NC(N)=N/N=C/c1ccc(Cl)c(Cl)c1,inactive: -1.22%
1,CCN(CC)CCC(c1ccc2c(c1)OCO2)c1c(OC)cc(OC)c2c(-c3ccccc3)cc(=O)oc12 (stereo not given),inactive: -0.79%
